Measurements from patent publication US20250000850A1, “COMPOSITION USED TO PREVENT OR SUPPRESS REFEEDING SYNDROME” (OTSUKA PHARMACEUTICAL FACTORY, INC., priority 2021, published 2025).
At least one structure is not confirmed: it was looked up by name or label, or the drawing left a doubt.

Assay: Effect of rapamycin on blood phosphorus concentration after refeeding to protein-undernourished rats
Assay type: in vivo, male Wistar rats
Conditions: for Blood phosphorus concentration versus rats given no rapamycin: refed with nutrient infusion
Description: Using male Wistar rats (7 weeks old at time of purchase; Charles River Laboratories Japan, Inc.), a group of rats fed with a purified diet having a protein content of 2.5% (referred to below as “low-protein diet”) for at least 3 weeks, and a group of rats fed with a purified diet having a protein content of 20% (referred to below as “normal diet”) for at least 3 weeks were prepared. […] Each animal had access to tap water ad libitum for at least 3 weeks. After fasting with ad libitum access to water for 24 hours, jugular vein catheterization was performed under isoflurane anesthesia, and the other end of the catheter was passed under the skin, exited from the back, and connected to a syringe containing physiological saline via a harness. The rats were then kept in individual metabolic cages with the catheter being open. Post-operatively, an antibiotic (ampicillin) was injected intramuscularly at a dose of 5 mg/100 μL/rat. After recovery from anesthesia, blood (400 μL) was collected from the catheter placed in the jugular vein, then injected into a tube containing sodium heparin, and stored on ice. The blood was promptly fractionated to obtain plasma, and the inorganic phosphorus concentration in the plasma was promptly measured using a Fuji Dry Chem Slide (produced by Fuji Film Corporation). The rats were grouped into predetermined groups using the obtained measurements and body weight data as indices.
The physiological saline was replaced with a nutrient infusion preparation or an electrolyte preparation at 5 p.m. to start administration to the animals. The nutrient infusion preparation used was Elneopa-NF No. 2 infusion (produced by Otsuka Pharmaceutical Factory Co., Ltd.). […]
Starting at 9 a.m. on the day after the start of administration, blood was collected from the abdominal aorta by using a syringe under isoflurane anesthesia. […] The concentration of inorganic phosphorus in the plasma was determined by an enzymatic method (Determiner L, produced by Hitachi Chemical Diagnostics Systems Co., Ltd.).

For `CO[C@H]1C[C@@H]2CC[C@@H](C)[C@@](O)(O2)C(=O)C(=O)N2CCCC[C@H]2C(=O)O[C@H]([C@H](C)C[C@@H]2CC[C@@H](O)[C@H](OC)C2)CC(=O)[C@H](C)/C=C(\C)[C@@H](O)[C@@H](OC)C(=O)[C@H](C)C[C@H](C)/C=C/C=C/C=C/1C` [rapamycin], the “Blood phosphorus concentration versus rats given no rapamycin” value (low-protein diet rats, LPD (refeeding) versus LPD (refeeding+rapamycin)) was “significantly high level of blood phosphorus concentration”, the “Blood phosphorus concentration versus rats given no rapamycin” value (normal diet rats) was “equivalent level of blood phosphorus concentration” and the “Phosphorus concentration versus rats given no rapamycin” value (rapamycin and electrolyte infusion, regardless of which diet was given) was “not so different”.
